Values from PubChem BioAssay AID720710 (VTT Finland, 2013).
Here is a random part of about 1,380 reagents tested. 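One array per condition without replicates; hydroxyurea arrays received 2 mM for 16 h plus 3 h recovery.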 The numbers tell different reagents against one gene apart. Not all columns of the deposit are shown. No sequences are given here.

Test: 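siRNAs sensitising CCNE1-overexpressing U-2 OS cells to replication stress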 (primary screen)
Cells: human U-2 OS bone cancer cells, parental and a cyclin E (CCNE1) overexpressing line
Reagent: single siRNA against human genes, 1 µM siRNA in the printed spot mix
Duration: 67 h
Conditions: half the arrays: hydroxyurea 2 mM for 16 h, then 3 h recovery; other arrays untreated
Read-out: 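EdU click signal imaged per DAPI-stained nucleus at 67 h; each spot divided by its subgrid median, then z-scored relative to non-targeting control spots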
Reading the numbers: EdU z-score, cyclin E line, hydroxyurea and EdU z-score, parental, hydroxyurea: higher = more DNA synthesis than non-targeting controls

The first 2 entries, to show the layout:
CDKN1A (GeneID 1026) #1 | EdU z-score, cyclin E line, hydroxyurea: -0.216; EdU z-score, parental, hydroxyurea: -2.37
CDKN1A (GeneID 1026) #2 | EdU z-score, cyclin E line, hydroxyurea: 1.61; EdU z-score, parental, hydroxyurea: 2.33

The list itself, from the start:
CDKN1A (GeneID 1026) #1 | EdU z-score, cyclin E line, hydroxyurea: -0.216; EdU z-score, parental, hydroxyurea: -2.37
CDKN1A (GeneID 1026) #2 | EdU z-score, cyclin E line, hydroxyurea: 1.61; EdU z-score, parental, hydroxyurea: 2.33
RAD54B (GeneID 25788) #1 | EdU z-score, cyclin E line, hydroxyurea: -1.31; EdU z-score, parental, hydroxyurea: 0.216
RAD54B (GeneID 25788) #2 | EdU z-score, cyclin E line, hydroxyurea: -0.377; EdU z-score, parental, hydroxyurea: 0.9
RNF25 (GeneID 64320) #1 | EdU z-score, cyclin E line, hydroxyurea: -1.91; EdU z-score, parental, hydroxyurea: -2.92
RNF25 (GeneID 64320) #2 | EdU z-score, cyclin E line, hydroxyurea: -1.31; EdU z-score, parental, hydroxyurea: -1.4
SEM1 (GeneID 7979) #1 | EdU z-score, cyclin E line, hydroxyurea: -1.42; EdU z-score, parental, hydroxyurea: -2.74
SEM1 (GeneID 7979) #2 | EdU z-score, cyclin E line, hydroxyurea: -0.0895; EdU z-score, parental, hydroxyurea: -0.141
TEP1 (GeneID 7011) #1 | EdU z-score, cyclin E line, hydroxyurea: -0.837; EdU z-score, parental, hydroxyurea: -3.39
TEP1 (GeneID 7011) #2 | EdU z-score, cyclin E line, hydroxyurea: 1.94; EdU z-score, parental, hydroxyurea: 1.38
PSMC4 (GeneID 5704) #1 | EdU z-score, cyclin E line, hydroxyurea: -1.93; EdU z-score, parental, hydroxyurea: -0.522
PSMC4 (GeneID 5704) #2 | EdU z-score, cyclin E line, hydroxyurea: 1.31; EdU z-score, parental, hydroxyurea: 0.765
ORC5 (GeneID 5001) #1 | EdU z-score, cyclin E line, hydroxyurea: -0.486; EdU z-score, parental, hydroxyurea: -1.74
ORC5 (GeneID 5001) #2 | EdU z-score, cyclin E line, hydroxyurea: -0.257; EdU z-score, parental, hydroxyurea: 2.46
LRBA (GeneID 987) #1 | EdU z-score, cyclin E line, hydroxyurea: -0.458; EdU z-score, parental, hydroxyurea: 1.51
LRBA (GeneID 987) #2 | EdU z-score, cyclin E line, hydroxyurea: -0.319; EdU z-score, parental, hydroxyurea: 2.14
CDK2 (GeneID 1017) #1 | EdU z-score, cyclin E line, hydroxyurea: -2.22; EdU z-score, parental, hydroxyurea: -1.65
CDK2 (GeneID 1017) #2 | EdU z-score, cyclin E line, hydroxyurea: -1.21; EdU z-score, parental, hydroxyurea: -1.58
RAD9B (GeneID 144715) #1 | EdU z-score, cyclin E line, hydroxyurea: -1.38; EdU z-score, parental, hydroxyurea: -1.78
RAD9B (GeneID 144715) #2 | EdU z-score, cyclin E line, hydroxyurea: 0.0582; EdU z-score, parental, hydroxyurea: -0.135
MMS19 (GeneID 64210) #1 | EdU z-score, cyclin E line, hydroxyurea: -1.89; EdU z-score, parental, hydroxyurea: -1.25
MMS19 (GeneID 64210) #2 | EdU z-score, cyclin E line, hydroxyurea: -1.38; EdU z-score, parental, hydroxyurea: 3.78
EEF1E1 (GeneID 9521) #1 | EdU z-score, cyclin E line, hydroxyurea: -2.5; EdU z-score, parental, hydroxyurea: -2.75
EEF1E1 (GeneID 9521) #2 | EdU z-score, cyclin E line, hydroxyurea: 1.22; EdU z-score, parental, hydroxyurea: -1.62
POLH (GeneID 5429) #1 | EdU z-score, cyclin E line, hydroxyurea: -0.43; EdU z-score, parental, hydroxyurea: -1.46
POLH (GeneID 5429) #2 | EdU z-score, cyclin E line, hydroxyurea: -0.263; EdU z-score, parental, hydroxyurea: 2.87
KAT2B (GeneID 8850) #1 | EdU z-score, cyclin E line, hydroxyurea: -0.606; EdU z-score, parental, hydroxyurea: -3.88
KAT2B (GeneID 8850) #2 | EdU z-score, cyclin E line, hydroxyurea: 1.28; EdU z-score, parental, hydroxyurea: -2.42
DYRK2 (GeneID 8445) #1 | EdU z-score, cyclin E line, hydroxyurea: -1.06; EdU z-score, parental, hydroxyurea: -0.652
DYRK2 (GeneID 8445) #2 | EdU z-score, cyclin E line, hydroxyurea: -0.816; EdU z-score, parental, hydroxyurea: 1.76
IGHMBP2 (GeneID 3508) #1 | EdU z-score, cyclin E line, hydroxyurea: -2.74; EdU z-score, parental, hydroxyurea: -5.24
IGHMBP2 (GeneID 3508) #2 | EdU z-score, cyclin E line, hydroxyurea: 0.198; EdU z-score, parental, hydroxyurea: -2.73
